Results published in US20250186535A1, “OPHTALMIC COMPOSITIONS AND METHODS OF USING SAME” (Tarsier Pharma Ltd., priority 2021, published 2025).
At least one peptide structure holds a part that was inferred or is arguable (an end, a ring closure or a residue). At least one structure is not confirmed: it was looked up by name or label, or the drawing left a doubt. *1 amine or outer side, *2 acyl side, *3 side chain or, on linkers, in order; H or OH if unused. Where a SMILES comes first, the peptide text is derived from it. [ ]: non-standard residue; d: D form. X1 = C[N+](C)(C)CCOP(=O)([O-])Oc1ccc(/N=N/c2cc(C[C@H](N[*:1])C(=O)[*:2])ccc2O)cc1

Experiment: Long term stability study of drug substance at -20°C
Assay type: physicochemical
Conditions: stored at −20° C.±5° C.

Compound: C[C@@H](O)[C@H](N)C(=O)N[C@@H](CCCCN)C(=O)N1CCC[C@H]1C(=O)N[C@@H](CCCNC(=N)N)C(=O)NCC(=O)N[C@@H](Cc1ccc(O)c(/N=N/c2ccc(OP(=O)([O-])OCC[N+](C)(C)C)cc2)c1)C(=O)O [TRS, phosphorylcholine-tuftsin conjugate] (H-TKPRG[X1]-OH)
- Time over which the drug substance is stable: 6 months
